{"source": "PubChem BioAssay AID256", "about": "(DTP/NCI, 2004)", "system": "CD2F1 mice, L1210 leukemia ip, survival T/C", "experiment": "NCI In Vivo Anticancer Drug Screen. Data for tumor model L1210 Leukemia (intraperitoneal) in CD2F1 (CDF1) mice", "details": "T/C endpoint: mean survival time, higher T/C = longer survival", "in_short": "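Each value reflects a quotient of treated over vehicle control outcomes in mice with a transplanted tumor.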", "key": {"[1]": {"details": "dose: 200.0 mg/kg/injection, schedule: Q04DX003 (ip), vehicle: saline with Tween-80"}, "[2]": {"details": "dose: 400.0 mg/kg/injection, schedule: Q04DX003 (ip), vehicle: saline with Tween-80"}, "[3]": {"details": "dose: 50.0 mg/kg/injection, schedule: Q01DX009 (ip), vehicle: saline with Tween-80"}, "[4]": {"details": "dose: 100.0 mg/kg/injection, schedule: Q04DX003 (ip), vehicle: saline with Tween-80"}, "[5]": {"details": "dose: 300.0 mg/kg/injection, schedule: Q01DX001 (ip), vehicle: saline"}}, "note": "The list does not hold the whole screen: it is rich in T/C values a quarter to a half above the control, in often repeated tests (any T/C) and in doses without a T/C. Further doses and runs are listed elsewhere. T/C is the treated group as % of the vehicle group. Some doses have a count of surviving animals in place of a T/C: the source holds a T/C of zero for them, seemingly a mark for toxic or unscored doses. Some doses without a T/C left all or most animals alive at the check, yet need not have been tolerated: the source hardly ever lists a survival T/C far under the control, and the zero likely stands for such cases as well. Survivors were counted at the toxicity check, usually on the fifth day, unless a day is given; later deaths do not show. Schedule codes are those of the source, taken here to give the interval after Q, in days (D) or hours (H), and the number of doses after X. For survival time, this PubChem deposit counts one and a half times the control or more as active, and values a quarter to a half above the control carry no call in these data; other NCI protocols may use other cut-offs. Some T/C values carry the count of animals alive at the toxicity check (mostly the fifth day); without a count, all were alive then.", "data": [{"smiles": "C=CCN(CC=C)N=Nc1ccc(C(N)=O)cc1", "values": [{"measurement": "survivor count", "setting": "dose: 266.0 mg/kg/injection, schedule: Q01DX009 (ip), vehicle: Klucel (hydroxypropylcellulose) (HPC)", "value": "2 of 6"}, {"measurement": "survivor count", "setting": "dose: 400.0 mg/kg/injection, schedule: Q01DX009 (ip), vehicle: Klucel (hydroxypropylcellulose) (HPC)", "value": "1 of 6"}]}, {"smiles": "CCOCCO", "values": [{"measurement": "survivor count", "setting": "dose: 100.0 mg/kg/injection, schedule: Q01DX001 (ip), vehicle: saline sonified", "value": "0 of 6"}, {"measurement": "survivor count", "setting": "dose: 200.0 mg/kg/injection, schedule: Q01DX001 (ip), vehicle: saline sonified", "value": "0 of 6"}, {"measurement": "survivor count", "setting": "dose: 400.0 mg/kg/injection, schedule: Q01DX001 (ip), vehicle: saline sonified", "value": "0 of 6"}]}, {"smiles": "O=C(NO)c1cccnc1", "values": [{"measurement": "T/C", "setting": "dose: 400.0 mg/kg/injection, schedule: Q01DX009 (ip), vehicle: other", "value": "136 % of control"}, {"measurement": "T/C", "setting": "dose: 600.0 mg/kg/injection, schedule: Q01DX009 (ip), vehicle: other", "value": "136 % of control"}]}, {"smiles": "CC1=C(CNc2ncnc3nc[nH]c23)CC=CC1", "values": [{"measurement": "survivor count", "setting": "[1]", "value": "6 of 6"}]}, {"smiles": "N#CC1(Nc2ccccc2)CCCCC1", "values": [{"measurement": "survivor count", "setting": "dose: 200.0 mg/kg/injection, schedule: Q01DX009 (ip), vehicle: other", "value": "2 of 6"}, {"measurement": "survivor count", "setting": "[2]", "value": "1 of 6"}]}, {"smiles": "CCCCCCCCCCCC(=O)NC1CC(O[C@H]2C[C@](O)(C(=O)CO)Cc3c(O)c4c(c(O)c32)C(=O)c2c(OC)cccc2C4=O)OC(C)C1O", "note": "(stereo partly specified)", "values": [{"measurement": "T/C", "setting": "dose: 12.0 mg/kg/injection, schedule: Q01DX009 (ip), vehicle: saline", "value": "125 % of control"}, {"measurement": "T/C", "setting": "dose: 48.0 mg/kg/injection, schedule: Q01DX009 (ip), vehicle: saline", "value": "125 % of control"}]}, {"smiles": "CCOC(=O)c1ccc(N/C(C)=C/C(=O)OC)cc1", "values": [{"measurement": "survivor count", "setting": "dose: 300.0 mg/kg/injection, schedule: Q04DX003 (ip), vehicle: saline", "value": "3 of 6"}]}, {"smiles": "O=C1/C(=C/c2ccc(Cl)cc2Cl)CCC/C1=C\\c1ccc(Cl)cc1Cl", "values": [{"measurement": "survivor count", "setting": "dose: 25.0 mg/kg/injection, schedule: Q01DX009 (ip), vehicle: saline with Tween-80", "value": "6 of 6"}, {"measurement": "survivor count", "setting": "[3]", "value": "6 of 6"}, {"measurement": "survivor count", "setting": "dose: 100.0 mg/kg/injection, schedule: Q01DX001 (ip), vehicle: saline with Tween-80", "value": "6 of 6"}, {"measurement": "survivor count", "setting": "dose: 200.0 mg/kg/injection, schedule: Q01DX001 (ip), vehicle: saline with Tween-80", "value": "6 of 6"}, {"measurement": "survivor count", "setting": "dose: 400.0 mg/kg/injection, schedule: Q01DX001 (ip), vehicle: saline with Tween-80", "value": "6 of 6"}]}, {"smiles": "Nc1ncnc(N)c1NC(=O)c1cccc(Br)c1", "values": [{"measurement": "survivor count", "setting": "[4]", "value": "2 of 6"}, {"measurement": "survivor count", "setting": "[1]", "value": "0 of 6"}, {"measurement": "survivor count", "setting": "[2]", "value": "1 of 6"}]}, {"smiles": "COc1ccc(C2=NNC(=O)CC2)cc1OC", "values": [{"measurement": "survivor count", "setting": "dose: 100.0 mg/kg/injection, schedule: Q04DX003 (ip), vehicle: saline", "value": "1 of 3"}, {"measurement": "survivor count", "setting": "dose: 200.0 mg/kg/injection, schedule: Q04DX003 (ip), vehicle: saline", "value": "0 of 3"}, {"measurement": "survivor count", "setting": "dose: 400.0 mg/kg/injection, schedule: Q04DX003 (ip), vehicle: saline", "value": "0 of 3"}]}, {"smiles": "CC(=O)CC(C)=O.CC(=O)CC(C)=O.CC(=O)CC(C)=O.CC(=O)CC(C)=O.[Hf]", "values": [{"measurement": "survivor count", "setting": "[2]", "value": "3 of 6"}]}, {"smiles": "Cc1ccc(Nc2nc(N)nc3c2ncn3C2OC(CO)C(O)C2O)cc1", "note": "(stereo unspecified)", "values": [{"measurement": "survivor count", "setting": "dose: 200.0 mg/kg/injection, schedule: Q01DX005 (ip), vehicle: distilled water + Tween-80", "value": "1 of 6"}]}, {"smiles": "COC(=O)NC(N)=Nc1ccccc1", "values": [{"measurement": "survivor count", "setting": "[3]", "value": "3 of 3"}]}, {"smiles": "Cc1ccc(N2C(=O)C=CC2=O)cc1", "values": [{"measurement": "survivor count", "setting": "dose: 10.0 mg/kg/injection, schedule: Q01DX009 (ip), vehicle: saline sonified", "value": "5 of 6"}]}, {"smiles": "O=S(=O)(/N=C/c1ccccc1)c1ccc(Cl)cc1", "values": [{"measurement": "survivor count", "setting": "dose: 200.0 mg/kg/injection, schedule: Q01DX009 (ip), vehicle: saline with Tween-80", "value": "1 of 3"}]}, {"smiles": "O=C(NO)Nc1ccccc1", "values": [{"measurement": "survivor count", "setting": "dose: 140.0 mg/kg/injection, schedule: Q03HX024 (ip), vehicle: saline with Tween-80", "value": "6 of 8"}, {"measurement": "survivor count", "setting": "dose: 210.0 mg/kg/injection, schedule: Q03HX024 (ip), vehicle: saline with Tween-80", "value": "6 of 8"}]}, {"smiles": "N#CCCCCN=[N+]=[N-]", "values": [{"measurement": "survivor count", "setting": "[5]", "value": "1 of 6"}]}, {"smiles": "CN=NNc1ccccc1", "values": [{"measurement": "T/C", "setting": "[4]", "value": "125 % of control [5 of 6 alive]"}, {"measurement": "T/C", "setting": "dose: 150.0 mg/kg/injection, schedule: Q01DX001 (ip), vehicle: saline", "value": "137 % of control"}, {"measurement": "T/C", "setting": "dose: 150.0 mg/kg/injection, schedule: Q04DX003 (ip), vehicle: saline with Tween-80", "value": "131 % of control"}, {"measurement": "survivor count", "setting": "[5]", "value": "0 of 6"}]}]}
